Assay results: paper PMC1540706
Results are given in words; binding and its absence hold for the method and conditions named. Binding seen in cells or lysates may run through a third protein. These calls come from enrichment with a bait or labelling near it, and not all partners need be listed.

Protein sequences, listed by entry. Tags and fused reporters are not part of them. Residues count along the entry.
UniProt P63010, residues 700-937: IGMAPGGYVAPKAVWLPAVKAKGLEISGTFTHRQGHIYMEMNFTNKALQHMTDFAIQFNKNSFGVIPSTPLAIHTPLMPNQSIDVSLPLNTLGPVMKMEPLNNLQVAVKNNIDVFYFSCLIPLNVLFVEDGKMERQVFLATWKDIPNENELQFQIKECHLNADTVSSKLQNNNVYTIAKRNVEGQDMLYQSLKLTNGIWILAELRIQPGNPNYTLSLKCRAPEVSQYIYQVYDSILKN

Target: GST-human-β2-appendage (700–937) (human) (UniProt P63010)
Assay: affinity purification with mass spectrometry; 30–100 μg GST-appendage on glutathione-sepharose beads in HeLa cell extract (150 mM NaCl, 20 mM HEPES pH 7.4, 2 mM DTT, NP40, 0.1% Tx-100), 1 h at 4 °C, 4 washes; Coomassie bands read by LC-MS/MS; only the target purified

Binder	binding
RalBP1 (protein, UniProt Q96D71 1-796) MEGLTLSDAEQKYYSDLFSYCDIESTKKVVVNGRVLELFRAAQLPNDVVLQIMELCGATRLGYFGRSQFYIALKLVAVAQSGFPLRVESINTVKDLPLPRFVASKNEQESRHAASYSSDSENQGSYSGVIPPPPGRGQVKKGSVSHDTVQPRTSADAQEPASPVVSPQQSPPTSPHTWRKHSRHPSGGNSERPLAGPGPFWSPFGEAQSGSSAGDAVWSGHSPPPPQENWVSFADTPPTSTLLTMHPASVQDQTTVRTVASATTAIEIRRQSSSYDDPWKITDEQRQYYVNQFKTIQPDLNGFIPGSAAKEFFTKSKLPILELSHIWELSDFDKDGALTLDEFCAAFHLVVARKNGYDLPEKLPESLMPKLIDLEDSADVGDQPGEVGYSGSPAEAPPSKSPSMPSLNQTWPELNQSSEQWETFSERSSSSQTLTQFDSNIAPADPDTAIVHPVPIRMTPSKIHMQEMELKRTGSDHTNPTSPLLVKPSDLLEENKINSSVKFASGNTVADGYSSSDSFTSDPEQIGSNVTRQRSHSGTSPDNTAPPPPPPRPQPSHSRSSSLDMNRTFTVTTGQQQAGVVAHPPAVPPRPQPSQAPGPAVHRPVDADGLITHTSTSPQQIPEQPNFADFSQFEVFAASNVNDEQDDEAEKHPEVLPAEKASDPASSLRVAKTDSKTEEKTAASAPANVSKGTTPLAPPPKPVRRRLKSEDELRPEVDEHTQKTGVLAAVLASQPSIPRSVGKDKKAIQASIRRNKETNTVLARLNSELQQQLKDVLEERISLEVQLEQLRPFSHL	binds
HivRevBP (protein, UniProt P52594-1 1-562) MAASAKRKQEEKHLKMLRDMTGLPHNRKCFDCDQRGPTYVNMTVGSFVCTSCSGSLRGLNPPHRVKSISMTTFTQQEIEFLQKHGNEVCKQIWLGLFDDRSSAIPDFRDPQKVKEFLQEKYEKKRWYVPPEQAKVVASVHASISGSSASSTSSTPEVKPLKSLLGDSAPTLHLNKGTPSQSPVVGRSQGQQQEKKQFDLLSDLGSDIFAAPAPQSTATANFANFAHFNSHAAQNSANADFANFDAFGQSSGSSNFGGFPTASHSPFQPQTTGGSAASVNANFAHFDNFPKSSSADFGTFNTSQSHQTASAVSKVSTNKAGLQTADKYAALANLDNIFSAGQGGDQGSGFGTTGKAPVGSVVSVPSQSSASSDKYAALAELDSVFSSAATSSNAYTSTSNASSNVFGTVPVVASAQTQPASSSVPAPFGATPSTNPFVAAAGPSVASSTNPFQTNARGATAATFGTASMSMPTGFGTPAPYSLPTSFSGSFQQPAFPAQAAFPQQTAFSQQPNGAGFAAFGQTKPVVTPFGQVAAAGVSSNPFMTGAPTGQFPTGSSSTNPFL	binds
KIAA1219 (protein, UniProt Q86X10 1-1494) MYSEWRSLHLVIQNDQGHTSVLHSYPESVGREVANAVVRPLGQVLGTPSVAGSENLLKTDKEVKWTMEVICYGLTLPLDGETVKYCVDVYTDWIMALVLPKDSIPLPVIKEPNQYVQTILKHLQNLFVPRQEQGSSQIRLCLQVLRAIQKLARESSLMARETWEVLLLFLLQINDILLAPPTVQGGIAENLAEKLIGVLFEVWLLACTRCFPTPPYWKTAKEMVANWRHHPAVVEQWSKVICALTSRLLRFTYGPSFPAFKVPDEDASLIPPEMDNECVAQTWFRFLHMLSNPVDLSNPAIISSTPKFQEQFLNVSGMPQELNQYPCLKHLPQIFFRAMRGISCLVDAFLGISRPRSDSAPPTPVNRLSMPQSAAVSTTPPHNRRHRAVTVNKATMKTSTVSTAHASKVQHQTSSTSPLSSPNQTSSEPRPLPAPRRPKVNSILNLFGSWLFDAAFVHCKLHNGINRDSSMTAITTQASMEFRRKGSQMSTDTMVSNPMFDASEFPDNYEAGRAEACGTLCRIFCSKKTGEEILPAYLSRFYMLLIQGLQINDYVCHPVLASVILNSPPLFCCDLKGIDVVVPYFISALETILPDRELSKFKSYVNPTELRRSSINILLSLLPLPHHFGTVKSEVVLEGKFSNDDSSSYDKPITFLSLKLRLVNILIGALQTETDPNNTQMILGAMLNIVQDSALLEAIGCQMEMGGGENNLKSHSRTNSGISSASGGSTEPTTPDSERPAQALLRDYALNTDSAAGLLIRSIHLVTQRLNSQWRQDMSISLAALELLSGLAKVKVMVDSGDRKRAISSVCTYIVYQCSRPAPLHSRDLHSMIVAAFQCLCVWLTEHPDMLDEKDCLKEVLEIVELGISGSKSKNNEQEVKYKGDKEPNPASMRVKDAAEATLTCIMQLLGAFPSPSGPASPCSLVNETTLIKYSRLPTINKHSFRYFVLDNSVILAMLEQPLGNEQNDFFPSVTVLVRGMSGRLAWAQQLCLLPRGAKANQKLFVPEPRPVPKNDVGFKYSVKHRPFPEEVDKIPFVKADLSIPDLHEIVTEELEERHEKLRSGMAQQIAYEIHLEQQSEEELQKRSFPDPVTDCKPPPPAQEFQTARLFLSHFGFLSLEALKEPANSRLPPHLIALDSTIPGFFDDIGYLDLLPCRPFDTVFIFYMKPGQKTNQEILKNVESSRTVQPHFLEFLLSLGWSVDVGRHPGWTGHVSTSWSINCCDDGEGSQQEVISSEDIGASIFNGQKKVLYYADALTEIAFVVPSPVESLTDSLESNISDQDSDSNMDLMPGILKQPSLTLELFPNHTDNLNSSQRLSPSSRMRKLPQGRPVPPLGPETRVSVVWVERYDDIENFPLSELMTEISTGVETTANSSTSLRSTTLEKEVPVIFIHPLNTGLFRIKIQGATGKFNMVIPLVDGMIVSRRALGFLVRQTVINICRRKRLESDSYSPPHVRRKQKITDIVNKYRNKQLEPEFYTSLFQEVGLKNCSS	binds
KIAA1558 (protein, UniProt Q5H9R7 1-873) MFWKFDLHSSSHIDTLLEREDVTLKELMDEEDVLQECKAQNRKLIEFLLKAECLEDLVSFIIEEPPQDMDEKIRYKYPNISCELLTSDVSQMNDRLGEDESLLMKLYSFLLNDSPLNPLLASFFSKVLSILISRKPEQIVDFLKKKHDFVDLIIKHIGTSAIMDLLLRLLTCIEPPQPRQDVLNWLNEEKIIQRLVEIVHPSQEEDRHSNASQSLCEIVRLSRDQMLQIQNSTEPDPLLATLEKQEIIEQLLSNIFHKEKNESAIVSAIQILLTLLETRRPTFEGHIEICPPGMSHSACSVNKSVLEAIRGRLGSFHELLLEPPKKSVMKTTWGVLDPPVGNTRLNVIRLISSLLQTNTSSINGDLMELNSIGVILNMFFKYTWNNFLHTQVEICIALILASPFENTENATITDQDSTGDNLLLKHLFQKCQLIERILEAWEMNEKKQAEGGRRHGYMGHLTRIANCIVHSTDKGPNSALVQQLIKDLPDEVRERWETFCTSSLGETNKRNTVDLVTTCHIHSSSDDEIDFKETGFSQDSSLQQAFSDYQMQQMTSNFIDQFGFNDEKFADQDDIGNVSFDRVSDINFTLNTNESGNIALFEACCKERIQQFDDGGSDEEDIWEEKHIAFTPESQRRSSSGSTDSEESTDSEEEDGAKQDLFEPSSANTEDKMEVDLSEPPNWSANFDVPMETTHGAPLDSVGSDVWSTEEPMPTKETGWASFSEFTSSLSTKDSLRSNSPVEMETSTEPMDPLTPSAAALAVQPEAAGSVAMEASSDGEEDAESTDKVTETVMNGGMKETLSLTVDAKTETAVFKSEEGKLSTSQDAACKDAEECPETAEAKCAAPRPPSSSPEQRTGQPSAPGDTSVNGPV	binds
